Paper PMC4661921
Results are given in words; binding and its absence hold for the method and conditions named. In cells and extracts the contact can be indirect. Some binding calls cover weakened binding; strength is not graded here. Sequences can lack the tags named with a protein. Blank lines part the entries; values can stand above or below the binder they belong to.

Key:
[1] = molecular target: T1, Myc-tagged USP17 (ubiquitin-specific protease 17) (human) (UniProt Q6R6M4); assay: co-IP; reciprocal: HEK293T cells co-transfected; lysed in RIPA buffer; IP with anti-Myc antibody 2 h at 4 °C, protein A/G agarose; immune blot
T1 sequence: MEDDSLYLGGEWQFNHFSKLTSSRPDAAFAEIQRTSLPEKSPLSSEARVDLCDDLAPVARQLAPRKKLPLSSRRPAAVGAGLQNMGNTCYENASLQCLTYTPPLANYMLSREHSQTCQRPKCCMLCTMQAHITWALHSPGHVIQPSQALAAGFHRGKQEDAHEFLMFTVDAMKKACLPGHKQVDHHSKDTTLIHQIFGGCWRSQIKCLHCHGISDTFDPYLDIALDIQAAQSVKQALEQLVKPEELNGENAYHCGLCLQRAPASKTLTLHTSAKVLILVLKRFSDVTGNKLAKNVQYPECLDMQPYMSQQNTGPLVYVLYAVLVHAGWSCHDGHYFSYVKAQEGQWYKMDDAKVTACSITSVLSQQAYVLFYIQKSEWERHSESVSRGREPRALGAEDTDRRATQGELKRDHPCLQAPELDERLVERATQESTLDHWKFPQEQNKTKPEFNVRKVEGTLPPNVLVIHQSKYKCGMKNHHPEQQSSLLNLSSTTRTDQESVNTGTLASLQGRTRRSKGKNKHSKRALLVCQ

[2] = molecular target: T2, Flag-tagged IL-33 (interleukin-33) (human) (UniProt O95760); assay: co-IP; HEK293T cells co-transfected; lysed in RIPA buffer (50 mM Tris-HCl pH 7.5, 150 mM NaCl, 1 mM EDTA, 1% NP-40, 0.25% NaDoc, 10% glycerol); IP with anti-Flag antibody 2 h at 4 °C, protein A/G agarose; immune blot
T2 sequence: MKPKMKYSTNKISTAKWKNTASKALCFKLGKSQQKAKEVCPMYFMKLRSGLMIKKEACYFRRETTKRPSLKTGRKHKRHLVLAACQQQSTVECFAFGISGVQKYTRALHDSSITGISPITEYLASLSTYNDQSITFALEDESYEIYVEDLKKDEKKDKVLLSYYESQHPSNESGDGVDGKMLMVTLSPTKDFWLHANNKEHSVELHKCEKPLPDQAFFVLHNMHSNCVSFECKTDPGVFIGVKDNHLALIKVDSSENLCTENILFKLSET

binding [1]: binds
B1: Flag-tagged IL-33 (interleukin-33) (protein, UniProt O95760 1-270)
chain: T2 sequence

binding [2]: binds
B2: Myc-tagged USP17 (ubiquitin-specific protease 17) (enzyme, UniProt Q6R6M4 1-530)
chain: T1 sequence
